# Laboratory results taken from patent US20200377561A1, “ANTIMICROBIAL PEPTIDES AND METHODS OF TREATING GRAM-NEGATIVE PATHOGEN INFECTIONS: POLAR AND NON-POLAR FACE ANALOGS” (THE REGENTS OF THE UNIVERSITY OF COLORADO, a body corporate, priority 2017, published 2020).
# System: Human erythrocytes
# Experiment: Haemolysis assay using human blood
# Assay type: cell-based
# Conditions: therapeutic index, HC50 over A. baumannii NCTC13420 MIC
# Description: To determine the extent of haemolytic activity (the ability to lyse red blood cells) in test peptides, a haemolysis assay was conducted using human blood (BioIVT, West Sussex, UK). Human erythrocytes were exposed to a single fixed concentration or a range of concentrations as to determine the % haemolysis (fixed concentration) or the concentration at which 50% haemolysis occurred (HC50), respectively. Prior to the assay, whole human blood was repeatedly washed in phosphate buffered saline (PBS) under cooled conditions to remove the buffy coat, plasma and cell debris. Washed erythrocytes were diluted as to achieve 1×10^8 cells/mL in PBS. Prepared human erythrocyte samples were combined with peptide at a single fixed concentration of 128 μg/mL, or a range of concentrations (two-fold dilution series) from 1000-31.25 μg/mL. Positive and negative controls containing 2% (v/v) Triton X-100 and PBS alone, respectively, were also prepared. Samples were incubated at 37° C. for 1 hour and then centrifuged to collect intact erythrocytes. Haemoglobin release was determined by recording the optical density of the supernatant at 540 nm. Optical density values were transformed to a percentage of the positive control. Results were recorded as a percentage haemolysis at 128 μg/mL, or by plotting the percentage haemolysis versus concentration and extrapolating the HC50 using linear regression analysis (Table 2 above)
# The therapeutic index is a widely-accepted parameter to represent the specificity of antimicrobial peptides for prokaryotic versus eukaryotic cells. It is calculated by the ratio of hemolytic activity and antimicrobial activity (MIC) (Table 2 above); thus, larger values of therapeutic index indicate greater specificity for prokaryotic cells. With the peptides used in this study the inventors used the HC50/MIC ratio value to calculate the therapeutic index.
row,SMILES,HC50/A.b MIC selectivity ratio
1,CC(=O)N[C@H](CCCCN)C(=O)N[C@H](CC(C)C)C(=O)N[C@H](CCCCN)C(=O)N[C@H](CCCCN)C(=O)N[C@H](CC(C)C)C(=O)N[C@H](CC(C)C)C(=O)N[C@H](CCCCN)C(=O)N[C@H](CCCCN)C(=O)N[C@H](CC(C)C)C(=O)N[C@H](CO)C(=O)N[C@H](CO)C(=O)N[C@H](C)C(=O)N[C@H](CCCCN)C(=O)N[C@H](CO)C(=O)N[C@H](CO)C(=O)N[C@H](CCCCN)C(=O)N[C@H](CC(C)C)C(=O)N[C@H](CO)C(=O)N[C@H](CO)C(=O)N[C@H](CC(C)C)C(=O)N[C@H](CC(C)C)C(=O)N[C@H](CCCCN)C(=O)N[C@H](CCCCN)C(=O)N[C@H](CC(C)C)C(=O)N[C@H](CCCCN)C(=O)N[C@H](CCCCN)C(N)=O [compound 24] (HELM PEPTIDE1{[ac].[dK].[dL].[dK].[dK].[dL].[dL].[dK].[dK].[dL].[dS].[dS].[dA].[dK].[dS].[dS].[dK].[dL].[dS].[dS].[dL].[dL].[dK].[dK].[dL].[dK].[dK].[am]}$$$$V2.0),>1000
2,CC(=O)N[C@H](C)C(=O)N[C@H](CC(C)C)C(=O)N[C@H](CCCCN)C(=O)N[C@H](CCCCN)C(=O)N[C@H](CC(C)C)C(=O)N[C@H](CC(C)C)C(=O)N[C@H](CCCCN)C(=O)N[C@H](CCCCN)C(=O)N[C@H](CC(C)C)C(=O)N[C@H](CO)C(=O)N[C@H](CO)C(=O)N[C@H](C)C(=O)N[C@H](CCCN)C(=O)N[C@H](CO)C(=O)N[C@H](CO)C(=O)N[C@H](CCCN)C(=O)N[C@H](CC(C)C)C(=O)N[C@H](CO)C(=O)N[C@@H](C(=O)N[C@H](CC(C)C)C(=O)N[C@H](CC(C)C)C(=O)N[C@H](CCCCN)C(=O)N[C@H](CCCCN)C(=O)N[C@H](CC(C)C)C(=O)N[C@H](CCCCN)C(=O)N[C@H](CCCCN)C(N)=O)[C@H](C)O [compound 19] (HELM PEPTIDE1{[ac].[dA].[dL].[dK].[dK].[dL].[dL].[dK].[dK].[dL].[dS].[dS].[dA].[NCCC[C@@H](N[*:1])C(=O)[*:2]].[dS].[dS].[NCCC[C@@H](N[*:1])C(=O)[*:2]].[dL].[dS].[dT].[dL].[dL].[dK].[dK].[dL].[dK].[dK].[am]}$$$$V2.0),>500
3,CC(=O)N[C@H](CCCCN)C(=O)N[C@H](CC(C)C)C(=O)N[C@H](CCCCN)C(=O)N[C@H](CCCCN)C(=O)N[C@H](CC(C)C)C(=O)N[C@H](CC(C)C)C(=O)N[C@H](CCCCN)C(=O)N[C@H](CCCCN)C(=O)N[C@H](CC(C)C)C(=O)N[C@H](CO)C(=O)N[C@H](CO)C(=O)N[C@H](C)C(=O)N[C@H](CN)C(=O)N[C@H](CO)C(=O)N[C@H](CO)C(=O)N[C@H](CN)C(=O)N[C@H](CC(C)C)C(=O)N[C@H](CO)C(=O)N[C@@H](C(=O)N[C@H](CC(C)C)C(=O)N[C@H](CC(C)C)C(=O)N[C@H](CCCCN)C(=O)N[C@H](CCCCN)C(=O)N[C@H](CC(C)C)C(=O)N[C@H](CCCCN)C(=O)N[C@H](CCCCN)C(N)=O)[C@H](C)O [compound 16] (HELM PEPTIDE1{[ac].[dK].[dL].[dK].[dK].[dL].[dL].[dK].[dK].[dL].[dS].[dS].[dA].[NC[C@@H](N[*:1])C(=O)[*:2]].[dS].[dS].[NC[C@@H](N[*:1])C(=O)[*:2]].[dL].[dS].[dT].[dL].[dL].[dK].[dK].[dL].[dK].[dK].[am]}$$$$V2.0),>500
4,CC(=O)N[C@H](C)C(=O)N[C@H](CC(C)C)C(=O)N[C@H](CCCCN)C(=O)N[C@H](CCCCN)C(=O)N[C@H](CC(C)C)C(=O)N[C@H](CC(C)C)C(=O)N[C@H](CCCCN)C(=O)N[C@H](CCCCN)C(=O)N[C@H](CC(C)C)C(=O)N[C@H](CO)C(=O)N[C@H](CO)C(=O)N[C@H](C)C(=O)N[C@H](CCCCN)C(=O)N[C@H](CO)C(=O)N[C@H](CO)C(=O)N[C@H](CCCCN)C(=O)N[C@H](CC(C)C)C(=O)N[C@H](CO)C(=O)N[C@@H](C(=O)N[C@H](CC(C)C)C(=O)N[C@H](CC(C)C)C(=O)N[C@H](CCCCN)C(=O)N[C@H](CCCCN)C(=O)N[C@H](CC(C)C)C(=O)N[C@H](CCCCN)C(=O)N[C@H](CCCCN)C(N)=O)[C@H](C)O [compound 8] (HELM PEPTIDE1{[ac].[dA].[dL].[dK].[dK].[dL].[dL].[dK].[dK].[dL].[dS].[dS].[dA].[dK].[dS].[dS].[dK].[dL].[dS].[dT].[dL].[dL].[dK].[dK].[dL].[dK].[dK].[am]}$$$$V2.0),>500
5,CC(=O)N[C@H](CCCCN)C(=O)N[C@H](CC(C)C)C(=O)N[C@H](CCCCN)C(=O)N[C@H](CCCCN)C(=O)N[C@H](CC(C)C)C(=O)N[C@H](CC(C)C)C(=O)N[C@H](CCCCN)C(=O)N[C@H](CCCCN)C(=O)N[C@H](CC(C)C)C(=O)N[C@H](CO)C(=O)N[C@H](CO)C(=O)N[C@H](C)C(=O)N[C@H](CCCCN)C(=O)N[C@H](CO)C(=O)N[C@H](CO)C(=O)N[C@H](CCCCN)C(=O)N[C@H](CC(C)C)C(=O)N[C@H](CO)C(=O)N[C@@H](C(=O)N[C@H](CC(C)C)C(=O)N[C@H](CC(C)C)C(=O)N[C@H](CCCCN)C(=O)N[C@H](CCCCN)C(=O)N[C@H](CC(C)C)C(=O)N[C@H](CCCCN)C(=O)N[C@H](CCCCN)C(N)=O)[C@H](C)O [compound 3] (HELM PEPTIDE1{[ac].[dK].[dL].[dK].[dK].[dL].[dL].[dK].[dK].[dL].[dS].[dS].[dA].[dK].[dS].[dS].[dK].[dL].[dS].[dT].[dL].[dL].[dK].[dK].[dL].[dK].[dK].[am]}$$$$V2.0),>1000
6,CC(=O)N[C@H](CCCCN)C(=O)N[C@H](CC(C)C)C(=O)N[C@H](CCCCN)C(=O)N[C@H](CCCCN)C(=O)N[C@H](CC(C)C)C(=O)N[C@H](CC(C)C)C(=O)N[C@H](CCCCN)C(=O)N[C@H](CCCCN)C(=O)N[C@H](CC(C)C)C(=O)N[C@H](CO)C(=O)N[C@H](CO)C(=O)N[C@H](C)C(=O)N[C@H](CCCN)C(=O)N[C@H](CO)C(=O)N[C@H](CO)C(=O)N[C@H](CCCN)C(=O)N[C@H](CC(C)C)C(=O)N[C@H](CO)C(=O)N[C@@H](C(=O)N[C@H](CC(C)C)C(=O)N[C@H](CC(C)C)C(=O)N[C@H](CCCCN)C(=O)N[C@H](CCCCN)C(=O)N[C@H](CC(C)C)C(=O)N[C@H](CCCCN)C(=O)N[C@H](CCCCN)C(N)=O)[C@H](C)O [compound 14] (HELM PEPTIDE1{[ac].[dK].[dL].[dK].[dK].[dL].[dL].[dK].[dK].[dL].[dS].[dS].[dA].[NCCC[C@@H](N[*:1])C(=O)[*:2]].[dS].[dS].[NCCC[C@@H](N[*:1])C(=O)[*:2]].[dL].[dS].[dT].[dL].[dL].[dK].[dK].[dL].[dK].[dK].[am]}$$$$V2.0),>500
7,CC(=O)N[C@H](CCCCN)C(=O)N[C@H](CC(C)C)C(=O)N[C@H](CCCCN)C(=O)N[C@H](CO)C(=O)N[C@H](CC(C)C)C(=O)N[C@H](CC(C)C)C(=O)N[C@H](CCCCN)C(=O)N[C@H](CO)C(=O)N[C@H](CC(C)C)C(=O)N[C@H](CO)C(=O)N[C@H](CCCCN)C(=O)N[C@H](C)C(=O)N[C@H](CCCCN)C(=O)N[C@H](CCCCN)C(=O)N[C@H](CCCCN)C(=O)N[C@H](CCCCN)C(=O)N[C@H](CC(C)C)C(=O)N[C@H](CCCCN)C(=O)N[C@H](CO)C(=O)N[C@H](CC(C)C)C(=O)N[C@H](CC(C)C)C(=O)N[C@H](CCCCN)C(=O)N[C@H](C)C(=O)N[C@H](CC(C)C)C(=O)N[C@H](CO)C(=O)N[C@H](CCCCN)C(N)=O [compound 26] (HELM PEPTIDE1{[ac].[dK].[dL].[dK].[dS].[dL].[dL].[dK].[dS].[dL].[dS].[dK].[dA].[dK].[dK].[dK].[dK].[dL].[dK].[dS].[dL].[dL].[dK].[dA].[dL].[dS].[dK].[am]}$$$$V2.0),>1000

# Peptide text beside a SMILES is read from it.
